Data on nine molecules can be found in PMC8468827.

Chains of the proteins cited; added tags and fusions are not shown.
UniProt Q9VQ93: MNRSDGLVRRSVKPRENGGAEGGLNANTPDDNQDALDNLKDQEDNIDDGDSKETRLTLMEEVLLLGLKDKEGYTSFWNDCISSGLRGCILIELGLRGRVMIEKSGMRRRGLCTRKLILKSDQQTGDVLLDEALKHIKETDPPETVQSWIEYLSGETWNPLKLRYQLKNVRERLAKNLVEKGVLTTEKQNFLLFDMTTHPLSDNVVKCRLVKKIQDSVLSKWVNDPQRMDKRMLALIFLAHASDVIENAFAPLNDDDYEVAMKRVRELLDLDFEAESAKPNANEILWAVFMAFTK

Results are given in words; binding and its absence hold for the method and conditions named. Binding seen in cells or lysates may run through a third protein. Here binding means that the protein was enriched with, or labelled near, the bait; the list need not be complete.

The labels stand for the following.
B1: Pgant5 (protein, UniProt Q6WV17 1-630)
chain: MTFSTFTRKMRGRMRSNTCRIVLLTSLVWVIFDFVLIARYSDCIGKDGWRCKRSGEYDVELPNAERLVDDNQLVDDNEINTEKSLDGESGGALIMGQGFASGGISMTYPSVVLKKWFLAPSVQEAKGKPGEMGKPVKIPADMKDLMKEKFKENQFNLLASDMISLNRSLTDVRHEGCRRKHYASKLPTTSIVIVFHNEAWTTLLRTVWSVINRSPRALLKEIILVDDASERDFLGKQLEEYVAKLPVKTFVLRTEKRSGLIRARLLGAEHVSGEVITFLDAHCECTEGWLEPLLARIVQNRRTVVCPIIDVISDETFEYITASDSTWGGFNWKLNFRWYRVPSREMARRNNDRTAPLRTPTMAGGLFSIDKDYFYEIGSYDEGMDIWGGENLEMSFRIWQCGGILEIIPCSHVGHVFRDKSPYTFPGGVAKIVLHNAARVAEVWLDEWRDFYYSMSTGARKASAGDVSDRKALRDRLKCKSFRWYLENVYPESLMPLDYYYLGEIRNAETETCLDTMGRKYNEKVGISYCHGLGGNQVFAYTKRQQIMSDDLCLDASSSNGPVNMVRCHNMGGNQEWVYDAEEKWIRHTNTGQCLQRATRDDANTPLLRPCSYGKGQQWLMESKFKWQAH
B2: Alg11 (protein, UniProt Q9VP06 1-475)
chain: MFLFLFLLWLLLSLVLVAVLSFLFLRQWLLGRKNKLHTSSENGINVGIFHPYCNAGGGGERVLWCAVRALQEKYQNARMVIYTGDIDASPNSILQKAKNVFNIAVDSDNVKFVFLKQRHWIEAKNYPHFTLLGQSIGSMVVGLEALCRFPPDIYIDTMGYAFTYPLFRYLAQSKVGCYVHYPVISTDMLKRVQQRQMSHNNKKYVARNPFLTWTKLAYYRLFSRMYKWVGCCAETIMVNSSWTENHILQLWDVPFKTHRVYPPCEVSHLKSLQHTEKGDEFIILSVGQFRPEKDHPLQLQAIYELRTLLAQDEALWNQIKLVIVGSCRNEDDYERLKNMQDLTKHLSLENNVQFSVNVPYEDLLKLYQTAHIGIHTMWNEHFGIGIVESMAAGLIMVAHKSGGPLLDIVETSAGSQNGFLATDAVEYAENILNIIVNNSEMNGIRNAARASVERFSEQEFEKNFLRAVSTLFTNN
B3: Brother of tout-velu (Botv) (protein, UniProt Q9XZ08 1-972)
chain: MPPAYDLGHSGEAYQPLDTGSGGGNEACAPNSSSAQIRHSMGFRTSWMRQFRRYKLPMVLLMLLFLVSCLAYRILSVEQDAPPLDLHRSSPLLDAYEDFSAMRAGDLKMRIEEMVRIKSTVSVELRELESRRQKLQSDISQYNQKIEELKQELLREQTELERLKISVEQAQVAQREAVQRNTPDLALPRSLLPNTLPRKSNPITGGMAASCEMHNCFNHSRCSLTSGFPVYLYDPDEHSVQRKGYDIDGFLKTTLKQTLGYNAHIVKDPKHACIYLVLVGEALLEQDLLRNNRYAAQEAEHQQPSTPTLENDCPVDMEKLYSLPYWGGDGRNHVLLNLARRDLTSHRTNPLYRQNTMRAIVVQSAFEREQFRPGYDLIVPPILGPPGGDVWQECAEMVPARRKYLLTYQGELRPKQSSLNPLDAFILEHLADMAKGATQDQFVLQFQCVPATEQQEGDSLPDWTLCGSDSSRRQLLKDSTFSLILPPLNGRVSSTLMLARIYEALRSGAVPVILGADELRLPYAETVDWRRTALLLPKARITELHFLLRAVQDADLLLLRRQGRLIWERYLSSVQATVDTVIASLRDRLGIPPRPVPSVIAQSVFNSTFIPLKSDPPVGLDTEPEESLGPIEPPYPSPAFRRNYTILRMQAKEAWNDWLDPFYLYPQLPFDPALPSEAKFMGSHTGFRPIGKGLGGAGKEFGESLGGNYPREQFTIVMLTYEREQVLMDSLGRLYGLPYLHKVVVVWNSPKPPLDDLRWPDIGVPVAVLRAPRNSLNNRFLPFDVIETEAVLSVDDDAHLRHDEILFGFRVWREHRDRVVGFPGRYHAWDLGNPNGQWHYNSNYSCELSMVLTGAAFVHKYYLYLYTYHLPQAIRDKVDEYMNCEDIAMNFLVSHITRKPPVKVTSRWTFRCPGCPVSLSEDDTHFQERHKCINFFSRVFGYTPLLNTQYRADSILFKTRIPHDKQKCFKYI
B4: Shibire (protein, UniProt P27619 1-877)
chain: MDSLITIVNKLQDAFTSLGVHMQLDLPQIAVVGGQSAGKSSVLENFVGKDFLPRGSGIVTRRPLILQLINGVTEYGEFLHIKGKKFSSFDEIRKEIEDETDRVTGSNKGISNIPINLRVYSPHVLNLTLIDLPGLTKVAIGDQPVDIEQQIKQMIFQFIRKETCLILAVTPANTDLANSDALKLAKEVDPQGVRTIGVITKLDLMDEGTDARDILENKLLPLRRGYIGVVNRSQKDIEGRKDIHQALAAERKFFLSHPSYRHMADRLGTPYLQRVLNQQLTNHIRDTLPGLRDKLQKQMLTLEKEVEEFKHFQPGDASIKTKAMLQMIQQLQSDFERTIEGSGSALVNTNELSGGAKINRIFHERLRFEIVKMACDEKELRREISFAIRNIHGIRVGLFTPDMAFEAIVKRQIALLKEPVIKCVDLVVQELSVVVRMCTAKMSRYPRLREETERIITTHVRQREHSCKEQILLLIDFELAYMNTNHEDFIGFANAQNKSENANKTGTRQLGNQVIRKGHMVIQNLGIMKGGSRPYWFVLTSESISWYKDEDEKEKKFMLPLDGLKLRDIEQGFMSMSRRVTFALFSPDGRNVYKDYKQLELSCETVEDVESWKASFLRAGVYPEKQETQENGDESASEESSSDPQLERQVETIRNLVDSYMKIVTKTTRDMVPKAIMMLIINNAKDFINGELLAHLYASGDQAQMMEESAESATRREEMLRMYRACKDALQIIGDVSMATVSSPLPPPVKNDWLPSGLDNPRLSPPSPGGVRGKPGPPAQSSLGGRNPPLPPSTGRPAPAIPNRPGGGAPPLPGGRPGGSLPPPMLPSRVSGAVGGAIVQQSGANRYVPESMRGQVNQAVGQAAINELSNAFSSRFK
B5: β’COP (protein, UniProt O62621 1-914)
chain: MPLKLDIKRRLTSRSDRVKCVDLHPAEPWMLCALYNGHVHIMNYENQQMVKDFEVCDVPVRSARFVARKNWILTGSDDMQIRVFNYNTLEKVHSFEAHSDYLRCIAVHPTQPLVLTSSDDMLIKLWNWEKMWACQRVFEGHTHYVMQIVFNPKDNNTFASASLDRTVKVWQLGSNFANFTLEGHEKGVNCVDYYHGGDKPYLISGADDRLVKIWDYQNKTCVQTLEGHAQNISAVCFHPELPIVLTGSEDGTVRIWHSGTYRLETCLNYGFERVWTISSMRGTNNVALGYDEGSIIIKVGREEPAMSMDVVGSKIIWAKHSEMQQVNLKTIADGTEIKDGERLPVATKDMGACEIYPQTIAHNPNGRFVVVCGDGEYIIYTSMALRNKAFGSAQEFVWALESNEYAIRENNGTVRLFRNFKERKSFTPEYGAESIYGGYYFGVKTSSGLAFYDWETLQLVRRIEVQPKNVFWNESGSLVCLATDDSYFVLGVDTAQVANAVETKEGLEDDGVESAFNVLGEVSECVKTGLWVGDCFIYTNSVNRINYYVGGEIVTVSHLDRTMYLLGYVPKDNRIYLGDKELNVISFCLQLSVLEYQTAVMRRDFERADVVLPTIPKEHRTRVAHFLEKQGFKSQALQVSTDADHKFDLALQIGDLEIALKLARESENSQKWSQLADVASSKNNMSLVKECMQKANDLSGLLLLSTASGDAQLLEVVGAAGSAQGHHNLAFLSAFLRSDVERCLEILIETNRLPEAAFFARTYLPSQMSRIVELWREKLGKVNEKAGQSLADPAQYTNLFPGLGDALRVEQHLQEERARKAPARLAANLPLNSERHPLQELFAAEQGAAGQHLEEKVKPAYVPAQAVVSSSQVAEPTSAADDDDDLDLEIDGITLDDNIDTTDVNLDDDFLSDD
B6: Pmm2 (protein, UniProt Q9VTZ6 1-254)
chain: MTTAALKRDEILLLFDVDGTLTMPRSVVTPEFEEFFYSRVKPRATIGIVGGSDLEKMFEQLNGRKILNEFDFIFPENGLVQIEGGKEVGKQNIIMHLGEETVKRFINFVLRYLSELDVPIKRGTFIEFRNGMMNVCPIGRQCTREERNMFAEYDIEHKVREKMIKDLKQEFADVDLTYSIGGQISFDVFPHGWDKTYCLRHIEAHYKFKEIHFFGDKTEPGGNDYEIYSDPRTISHRVYTPKDTQRILTEILEL
B7: SH3PX1 (protein, UniProt Q9NCC3 1-565)
chain: MTSYVRAMYDFTGEPGSSELSIATGDVLSVTRSDVGEGWWEGKNARGQIGLFPAAYVEVMSAAEAQKLSASGATSVPQVPDPFASPPLPRYDQTADDDGSNWDDEDDWSDDNDTYSEIGPGGQKSAGQSARAGGLSHSTSDYDNKHLPIAPNDDTQSLASVAGGTGAAGTVKKGMFAKSSDSYILGLSSTKEKIPECEMAYITQVEDSIYQWTQNHSPYSVVVASPKKESKFKGMKTFIAYQLTPSFNNISVSRRYKHFDWLHERLVDKFCLIPVPPLPDKQISGRYEEQFVEHRRVQLQEFVDWVCRHPVISKCEVWYHFLTCRDEKIWKSGKRKAERDPYMGVNYCLAISPPDKNLLHSKVDAQVELGTQFIHSMDVAVRNLNNISNDMAKRSMSQSKKEFQRIGDGLSDLAKALAIDERRAPTRNAVPLSESVGRIGGIFIGIGQAFGDQPKHDWIPLSDRLHIYRGVLNCFPDIFSTHKGAIQKRKDCEKLAGEGRMNNPQLHDVNRRTDVVSYTVLAELTHFKSERDTHLKHTLKNFIAEQIKFYQGVVARLQEASRQIE
B8: Pgant7 (protein, UniProt Q8MV48 1-591)
chain: MRVSTIRSGRICRLALCLLVLLPLLYLLANWSDHHKRVQEAYHTRFGGPKFAHQRLEGRPREVPKLVDGLGNFEPKDVKPRSGPGENGEAHSLSPDKKHMSDASEMEYGMNIACSDEISMHRSVRDTRLEECRHWDYPFDLPRTSVIIVFHNEGFSVLMRTVHSVIDRSPTHMLHEIILVDDFSDKENLRSQLDEYVLQFKGLVKVIRNKEREGLIRTRSRGAMEATGEVIVFLDAHCEVNTNWLPPLLAPIYRDRTVMTVPIIDGIDHKNFEYRPVYGTDNHFRGIFEWGMLYKENEVPRREQRRRAHNSEPYRSPTHAGGLFAINREYFLELGAYDPGLLVWGGENFELSFKIWQCGGSIEWVPCSRVGHVYRGFMPYNFGKLASKKKGPLITINYKRVIETWFDDTHKEYFYTREPLARYLDMGDISEQLALKKRLNCKSFQWFMDHIAYDVYDKFPGLPANLHWGELRSVASDGCLDSMGHQPPAIMGLTYCHGGGNNQLVRLNAAGQLGVGERCVEADRQGIKLAVCRLGTVDGPWQYNEHTKHLMHRVHKKCMALHPATQQLSLGHCDVNDSYQQWWFKEIRPRW
B9: phosphatidylinositol 4-phosphatase Sac1 (protein, UniProt Q9W0I6 1-592)
chain: MDSREENAVYDDMNLYIAPQSFIIEPNGGDELLVIGRHDKVTRVQPASGGLVANLRPTRRICGVLGTIHLLSCDYLLVATHRLFVGVLNGAVVWRLAGYDIIPYIPNSFQRKENENYLRLLRQTLDTKFFYFSYRYDLTNSLQRQREVAQSRPEVSGLLQRAEQRFVWNGYVLRQFNCDKMEKFQLPLVLGFVSINQVQINGQTFFWSIITRRSVQRAGTRLFCRGSDEQGHVANFVETEQIVEFNGQLTGFVQTRGSMPFHWHQLPNLRYKPRPVLVPGKDHLAACGLHFKEQIRLYGNNVAVNLVDHKGAEGELEATYARLVREMGNPQVRYESFDFHSECRKMRWDRLNILIDRLAHEQDQFGVYHVFDDGKLVSTQTGVFRTNCIDCLDRTNVVQSMLARRSLTAVLQKLGVLHVGQKVEHASDIFESIFKGVWADNADLVSLQYSGTCALKTDFTRTGKRTKSGAMQDGKNSLMRYYLNNFADGQRQDSIDLFLGKYLVNDNEGGAVPSPLESKHGWRFFTFPSVLLVAVAMFMITMTYPAEFNTENLLFMLFWGAMIAVSATGILHYGVEFVQWPRLFPPISFRDP

This test has as its target dGOLPH3-mRFP (Drosophila) (UniProt Q9VQ93). The test can be described thus: affinity purification with mass spectrometry; RFP-trap beads on lysate of 3000 adult testes expressing dGOLPH3-RFP (RFP alone as control); lysis buffer 25 mM Tris-HCl pH 7.4, 150 mM NaCl, 1 mM EDTA, 1% NP-40; washes at 4 °C; nanoLC-MS/MS.
For B1, the binding result is reported as “binds”.
In the case of B2, the binding result is “binds”.
In the case of B3, the binding result was “binds”.
With B4, the binding result was “binds”.
To B5 belongs “binds”.
Regarding B6, the binding result is “binds”.
For the molecule B7, the binding result is “binds”.
Turning to B8, the binding result was “binds”.
As for B9, the entry is “binds”.
